# Experimental data as given in the supplement of paper PMC8728848.
# The other results are listed elsewhere or left out.
# B1: Layilin (Mus musculus), Q8C351 (protein)
# chain: MQPGAALQAMLLAVLLAKPRDSKGRLLSASDLDPRGGQLVCRGGTRRPCYKVIYFHDAFQRLNFEEAKETCMEDGGQLVSIETEDEQRLIEKFIENLLASDGDFWIGLKRLEEKQSNNTACQDLYAWTDGSTSQFRNWYVDEPSCGSEVCVVMYHQPSAPPGIGGSYMFQWNDDRCNMKNNFICKYHDDKPSTTPSIWPGGEATEPATPLLPEETQKEDTKETFKERREAALNLAYILIPSIPLFLLLVVTSAVCWVWICRRKREQTDPSTKEQHTIWPTPRQENSPNLDVYNVIRKQSEADLAEPRPDLKNISFRVCSGEAMPDDMSCDYENIAVNPSESGFVTLASMESGFVTNDIYEFSPDRMGRSKESGWVENEIYY
# What was measured:
# Experiment in all cases: glycan array binding signal (z-score within array); higher = stronger binding
# Conditions in all cases: glycan notation: IUPAC condensed, linker removed
# [1] = molecular target: Neu5Ac(a2-6)GalNAc(b1-4)GlcNAc
# Summary of the method: (§1)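 Glycan array binding is given as a within-array Z-score, which can be read as non-binding when negative. The arrays, 3228 of them, came from the Consortium for Functional Glycomics database and were retained only where the protein sequence was available. Z-scores were averaged across arrays of the same protein sequence at different concentrations or buffers and across linkers.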
# [2] = molecular target: Neu5Ac(a2-6)GlcNAc(b1-4)GlcNAc
# Summary of the method: as §1
# [3] = molecular target: Neu5Ac(a2-6)GlcNAc(b1-4)GlcNAc(b1-4)GlcNAc
# Summary of the method: as §1
# Neu5Ac(a2-8)Neu5Ac = molecular target: Neu5Ac(a2-8)Neu5Ac
# Summary of the method: as §1
# [4] = molecular target: Neu5Ac(a2-8)Neu5Ac(a2-3)Gal(b1-3)GalNAc(b1-4)[Neu5Ac(a2-8)Neu5Ac(a2-3)]Gal(b1-4)Glc
# Summary of the method: as §1
# [5] = molecular target: Neu5Ac(a2-8)Neu5Ac(a2-3)Gal(b1-4)Glc
# Summary of the method: as §1
# [6] = molecular target: Neu5Ac(a2-8)Neu5Ac(a2-3)[Gal(b1-3)GalNAc(b1-4)]Gal(b1-4)Glc
# Summary of the method: as §1
# [7] = molecular target: Neu5Ac(a2-8)Neu5Ac(a2-3)[GalNAc(b1-4)]Gal(b1-4)Glc
# Summary of the method: as §1
# [8] = molecular target: Neu5Ac(a2-8)Neu5Ac(a2-8)Neu5Ac
# Summary of the method: as §1
# [9] = molecular target: Neu5Ac(a2-8)Neu5Ac(a2-8)Neu5Ac(a2-3)Gal(b1-4)Glc
# Summary of the method: as §1
# [10] = molecular target: Neu5Ac(a2-8)Neu5Ac(a2-8)Neu5Ac(a2-3)[GalNAc(b1-4)]Gal(b1-4)Glc
# Summary of the method: as §1
# [11] = molecular target: Neu5Ac(a2-8)Neu5Ac(a2-8)Neu5Ac(a2-8)Neu5Ac(a2-3)[GalNAc(b1-4)]Gal(b1-4)Glc
# Summary of the method: as §1
# [12] = molecular target: Neu5Ac(b2-6)Gal(b1-4)GlcNAc
# Summary of the method: as §1
# Neu5Ac(b2-6)GalNAc = molecular target: Neu5Ac(b2-6)GalNAc
# Summary of the method: as §1
# [13] = molecular target: Neu5Ac9Ac(a2-3)Gal(b1-3)GlcNAc
# Summary of the method: as §1
# [14] = molecular target: Neu5Ac9Ac(a2-3)Gal(b1-4)GlcNAc
# Summary of the method: as §1
# [15] = molecular target: Neu5Ac9Ac(a2-6)Gal(b1-4)GlcNAc
# Summary of the method: as §1
# [16] = molecular target: Neu5Gc(a2-3)Gal(b1-3)GlcNAc
# Summary of the method: as §1
# [17] = molecular target: Neu5Gc(a2-3)Gal(b1-3)[Fuc(a1-4)]GlcNAc
# Summary of the method: as §1
# Neu5Gc(a2-3)Gal(b1-4)Glc = molecular target: Neu5Gc(a2-3)Gal(b1-4)Glc
# Summary of the method: as §1
# [18] = molecular target: Neu5Gc(a2-3)Gal(b1-4)GlcNAc
# Summary of the method: as §1
# [19] = molecular target: Neu5Gc(a2-3)Gal(b1-4)[Fuc(a1-3)]GlcNAc
# Summary of the method: as §1
# [20] = molecular target: Neu5Gc(a2-6)Gal(b1-4)GlcNAc
# Summary of the method: as §1
# Neu5Gc(a2-6)GalNAc = molecular target: Neu5Gc(a2-6)GalNAc
# Summary of the method: as §1
# [21] = molecular target: Neu5Gc(b2-6)Gal(b1-4)GlcNAc
# Summary of the method: as §1
binder,measurement,setting,value
B1,glycan array binding signal (z-score),[1],0.121
same,glycan array binding signal (z-score),[2],1.1
same,glycan array binding signal (z-score),[3],0.077
same,glycan array binding signal (z-score),Neu5Ac(a2-8)Neu5Ac,0.295
same,glycan array binding signal (z-score),[4],0.192
same,glycan array binding signal (z-score),[5],0.617
same,glycan array binding signal (z-score),[6],-0.274
same,glycan array binding signal (z-score),[7],-0.705
same,glycan array binding signal (z-score),[8],-0.704
same,glycan array binding signal (z-score),[9],-0.406
same,glycan array binding signal (z-score),[10],0.029
same,glycan array binding signal (z-score),[11],0.407
same,glycan array binding signal (z-score),[12],-1.32
same,glycan array binding signal (z-score),Neu5Ac(b2-6)GalNAc,-0.677
same,glycan array binding signal (z-score),[13],0.75
same,glycan array binding signal (z-score),[14],-0.452
same,glycan array binding signal (z-score),[15],-0.584
same,glycan array binding signal (z-score),[16],0.013
same,glycan array binding signal (z-score),[17],-0.015
same,glycan array binding signal (z-score),Neu5Gc(a2-3)Gal(b1-4)Glc,-1.25
same,glycan array binding signal (z-score),[18],0.387
same,glycan array binding signal (z-score),[19],2.74
same,glycan array binding signal (z-score),[20],-0.511
same,glycan array binding signal (z-score),Neu5Gc(a2-6)GalNAc,0.399
same,glycan array binding signal (z-score),[21],-0.119

# Part of the list above, tab-delimited:
binder	measurement	setting	value
B1	glycan array binding signal (z-score)	[10]	0.029
same	glycan array binding signal (z-score)	[11]	0.407
same	glycan array binding signal (z-score)	[12]	-1.32
same	glycan array binding signal (z-score)	Neu5Ac(b2-6)GalNAc	-0.677
same	glycan array binding signal (z-score)	[13]	0.75
same	glycan array binding signal (z-score)	[14]	-0.452
same	glycan array binding signal (z-score)	[15]	-0.584
